In article PMC10609148 (Molecules, 2023):

Test system: human recombinant Cb5R with a His6-tag
Experiment: FRET between FAD of His6-tagged Cb5R and Aβ(1–42) HiLyte-Fluor555
Assay type: binding
Conditions: random orientation
Description: The assay buffer was 20 mM phosphate/0.1 mM diethylenetriaminepentaacetic acid (pH 7).

Aβ(1–42) HiLyte^TM-Fluor555: Human Aβ(1–42) with HiLyte-Fluor555 dye covalently bound to ASP1; AnaSpec
distance FAD to HiLyte-Fluor555 (1 acceptor per donor): 2.35 nm
distance FAD to HiLyte-Fluor555 (2 equidistant acceptors per donor): 3.1 nm
